Source: patent publication US20030036642
For some assays here: Negatives hold for the conditions tested. For some assays here: For at least one entry, the source does not settle the construct or the ends of the probe.

Tests used:
[1] = biological target: PDGF-AA (long form mature A-chain homodimer) (Homo sapiens) (UniProt P04085); experiment: inhibition of the protein; details: no inhibition of 125I-PDGF-AA binding to alpha-receptor, data not shown, purified recombinant protein, protein details: R&D Systems, expressed in E. coli, carrier-free, single-stranded DNA, dose not given here
[2] = biological target: PDGF-BB (mature B-chain homodimer) (Homo sapiens) (UniProt P01127); experiment: inhibition of the protein; details: 3'-3' inverted T at nt 39; no effect on receptor binding or mitogenesis; purified recombinant protein; protein details: R&D Systems, expressed in E. coli, carrier-free; single-stranded DNA; dose not given here
thrombin (Homo sapiens) = experiment: binding assay; details: 3'-3' inverted T at nt 39; CITED; stated without experimental detail; single-stranded DNA

CACAGGCTACGGCACGTAGAGCATCACCATGATCCTGTGT [36t]
functional effect of the aptamer ([1]; 3'-3' inverted T at nt 40, variant of ligand 36 full length): not active

CAGTCCGTGGTAGGGCAGGTTGGGGTGACTTCGTGGAAT [T39 thrombin ligand]
functional effect of the aptamer [2]: not active | Kd (thrombin (Homo sapiens)): 0.5 nM

TACTCAGGGCACTGCAAGCAATTGTGGTCCCAATGGGCTGAGTAT [41t]
functional effect of the aptamer ([1]; 3'-3' inverted T at nt 45, variant of ligand 41 full length): not active

TGGGAGGGCGCGTTCTTCGTGGTTACTTTTAGTCCCGT [20t]
functional effect of the aptamer ([1]; 3'-3' inverted T at nt 38, variant of ligand 20 full length): not active
